# Experimental data published in PubChem BioAssay AID493014 (National Center for Advancing Translational Sciences (NCATS), 2011).
# The campaign covered roughly 340,000 compounds. About 170 (0.05%) were called active. This list was built around the results that the source calls inconclusive (neither active nor inactive); the mix of calls is not that of the screen. Calls come from the whole dose curve; as a rule, active = well fitted inhibition curve with a large enough effect in the signal ratio, with a control signal flat (not every such curve was filed as active); inconclusive = small, poorly fitted or top-dose-only effect, or effect the other way, or a change in a side signal; inactive = flat fitted curve, though single readings scatter; the % refers to the signal ratio. Potencies of inconclusive entries are doubtful fits and often do not repeat.
# Assay: qHTS Assay to Find Inhibitors of Chronic Active B-Cell Receptor Signaling;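 for activity change, negative = inhibition: plate controls were basal doxycycline-induced cells for no effect and cells given 10 µM MG132 for full effect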
# Conditions: ABC-DLBCL IkBa-CBG/CBR reporter, luminescence ratio (green luciferase fused to IkBa over red control in TMD8 lymphoma cells), 4 h; activity change, negative = inhibition: at 46.1 µM (top of the series) unless noted
# Method in brief: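 TMD8 human ABC-DLBCL cells with doxycycline-inducible IκBα–green luciferase fusion and unfused red luciferase, in 0.5% FBS medium; compounds up to 46 uM, 4 h at 37C. Green/red luminescence ratio, filter-overlap corrected, fitted to concentration-response curves.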
# Potency is the fitted concentration of half-maximal effect.
SMILES,"activity change, negative = inhibition",Potency
Cc1ccc(-c2ccc(/C=N/n3cnnc3)o2)cc1,inconclusive: -10.8%,
CC(=O)Nc1cccc(NC(=O)c2ccc(C)c([N+](=O)[O-])c2)c1,,"inconclusive: 22.4 µM [falling, partial curve, poor fit]"
COc1ccc(-c2cccc(C3CC=CC4C3C(=O)N(Cc3ccccc3)C4c3cc(C)ccc3F)c2)cc1 (configuration not stated),inactive: 3.75%,
Cc1ccc(S(=O)(=O)N(C)CC(=O)NC2CCCC2)cc1,inconclusive: -13.1%,
Cc1ccc(CCNC(=O)c2cc(Nc3ccc(C)c(C)c3)nc3ccccc23)cc1,,"inconclusive: 3.16 µM [rising, partial curve, poor fit]"
O=S(=O)(NCCc1ccccc1)c1ccc(Cl)nc1,,"inconclusive: 23.1 µM [rising, partial curve, poor fit]"
NC(=O)c1nsnc1-c1ccccc1O,inconclusive: -6.05%,
COc1ccc(Br)cc1CN(C)C(=O)CNC(=O)c1ccc2ccccc2c1,inactive: -11%,
Cc1ccc(Nc2ccc([N+](=O)[O-])nc2[N+](=O)[O-])cc1,inactive: 10.2%,
CC1(c2ccccc2)NC(=O)N(CC(=O)Nc2nc(-c3ccccn3)cs2)C1=O (configuration not stated),inconclusive: 17.9%,
CCOC(=O)C1=C(c2ccccc2)OC(N)=C(C#N)C1c1ccc(Br)s1 (configuration not stated),inconclusive: 1.59%,
Cc1ccc(-c2csc(NC(=O)c3ccc(Br)cc3)c2C(=O)O)cc1,,"inconclusive: 1 µM [falling, partial curve]"
CCOC(=O)c1ccc(NC(=O)c2cccc3c2C(=O)N(CC2CCCO2)C3)cc1 (configuration not stated),inconclusive: 25%,
CC(=O)N/C(=C\c1ccccc1)C(=O)OC/C=C/c1ccccc1,,"inconclusive: 35.5 µM [falling, single point]"
C/C(=N\NC(=O)c1ccccc1N)c1ccc(NC(=O)Cc2ccccc2)cc1,,"inconclusive: 35.5 µM [falling, partial curve, poor fit]"
Clc1ccc(OCc2nc3ccccc3[nH]2)cc1,,"inconclusive: 31.6 µM [rising, single point]"
CC(=O)c1ccc(S(=O)(=O)N(CCCO)Cc2cc3cc4c(cc3[nH]c2=O)OCCO4)cc1,,"inconclusive: 14.1 µM [falling, partial curve, poor fit]"
COc1ccc(NC(=O)c2cc3ccccc3o2)cn1,inconclusive: 0.846%,
COc1cccc(N2CCN(C(=O)c3cc4c(=O)n(Cc5ccccc5)ccc4nc3C)CC2)c1,inactive: -10.2%,
Brc1ccc(-c2csc(N3CCCCC3)n2)cc1,,"inconclusive: 0.58 µM [falling, full curve, poor fit]"
Oc1ccc(C=Nc2cccc3ncccc23)c(O)c1,inconclusive: -1.96%,
COc1ccc(OC)c(S(=O)(=O)NC2CC(=O)N(c3cccc(F)c3)C2)c1 (configuration not stated),inactive: -11.7%,
CCNc1nc(NC(C)C)nc(Oc2ccc(/C=N/O)cc2)n1,inconclusive: -15.5%,
Cc1ccc(C2(C(F)(F)F)NC(=O)N3C(=C2C#N)Nc2ccccc23)cc1 (configuration not stated),inconclusive: 0.233%,
CC(=O)c1ccc(NC(=O)C(C)OC(=O)/C=C/c2ccco2)cc1 (configuration not stated),,"inconclusive: 23.1 µM [falling, single point]"
Cc1ccc(C)c(N2CCN(S(=O)(=O)c3ccc4c(c3)C(C)(C)C(=O)N4C)CC2)c1,inconclusive: 20.3%,

SMILES,"activity change, negative = inhibition",Potency
O=C1C=C(NCc2ccco2)C2(CCCCC2)O1,inconclusive: 7.07%,
CCOC(=O)c1ccc(CSc2n[nH]c(C)n2)o1,inactive: 1.12%,
CCOC(=O)C1CCCN(C(=O)C2CCN(S(=O)(=O)CC)CC2)C1 (configuration not stated),inconclusive: -102%,
Cc1cc(C(=O)CSc2n[nH]c(N)n2)c(C)n1-c1cc(F)ccc1F,inconclusive: 2.97%,
CCC(C)(C)n1nnnc1C(c1cccc(C#N)c1)N1CCN(c2cc(C)ccc2C)CC1 (configuration not stated),inactive: 4.59%,
COc1ccc(-n2c(Cn3c(=O)sc4ccccc43)nnc2SCC(=O)N2CCCC2)cc1,inconclusive: 26.2%,
CC1CCCC(NC(=O)C2CCN(S(=O)(=O)N3CCC4(CC3)OCCO4)CC2)C1C (configuration not stated),inconclusive: 2.04%,
CCC(=O)Nc1ccc2c(c1)ncn2-c1ccccc1C,,"inconclusive: 17.8 µM [falling, single point]"
O=C(COc1ccc(Br)cc1CO)Nc1ccc(S(=O)(=O)N2CCCCC2)cc1,inconclusive: -11.9%,
O=C(NNC(=O)c1sc2ccccc2c1Cl)Nc1ccc(Cl)cc1,inconclusive: 26.1%,
COCCCN1C(=O)C(=O)/C(=C(/O)c2ccc(S(=O)(=O)N3CCCCC3)cc2)C1c1ccc(O)c(OC)c1 (configuration not stated),inactive: -1.08%,
O=C(Nc1cccc(Br)c1)c1ccccc1-c1ccccc1,inconclusive: 17.3%,
COc1ccc2[nH]c(C)c(CCNC(=S)Nc3cccc(C)c3)c2c1,inconclusive: -6.32%,
CN1N=C(c2ccc(F)c(F)c2)CSC1=NCc1ccccc1,inconclusive: 2.74%,
O=[N+]([O-])c1cccc(N=NN(CCO)c2cccc([N+](=O)[O-])c2)c1,inconclusive: 26.1%,
Cc1ccc(NC(=O)c2ccc(NS(=O)(=O)c3cccc4cccnc34)cc2)cc1,inconclusive: 0.354%,
COc1ccc(N2C(=O)C(Cl)=C(N3CCCC3)C2=O)cc1,inconclusive: -2.75%,
COc1ccc(OC)c(C(C[N+](=O)[O-])c2c(C)cc3ccccn23)c1 (configuration not stated),inconclusive: -18.3%,
O=C(/C=C/c1ccc([N+](=O)[O-])cc1)NCCc1ccccc1,inconclusive: 7.19%,
CCCN(CC(=O)Nc1ccc(F)c(F)c1F)C(=O)CCc1nc2ccccc2c(=O)[nH]1,inactive: 2.02%,
COc1ccc2c(c1)OC(=O)CC2c1cc(OC)c(OC)c(OC)c1 (configuration not stated),inconclusive: -4.82%,
O=C(CCNc1n[nH]c(=O)[nH]c1=O)N/N=C/c1ccc(C(F)(F)F)cc1,inconclusive: -3.2%,
CCNS(=O)(=O)c1ccc(NC(=O)Nc2cccc(OC)c2)cc1,inconclusive: -18.5%,
Cc1nnc(N2CCCC(C(=O)Nc3cccc(C(F)(F)F)c3)C2)c2nn(-c3ccccc3)c(C)c12 (configuration not stated),,"inconclusive: 6.31 µM [falling, single point]"
Cc1oc(-c2ccc(Cl)cc2)cc1C(=O)/C(C#N)=C/Nc1ccccc1,,"inconclusive: 2.51 µM [rising, full curve]"
Nc1c([N+](=O)[O-])cnnc1-c1ccccc1,inactive: 3.03%,

# One compound at a time, from the list above:
# O=S(=O)(NCCc1ccccc1)c1ccc(Cl)nc1 as listed: Potency: inconclusive: 23.1 µM [rising, partial curve, poor fit]
# Oc1ccc(C=Nc2cccc3ncccc23)c(O)c1 as listed: activity change, negative = inhibition: inconclusive: -1.96%
# COc1cccc(N2CCN(C(=O)c3cc4c(=O)n(Cc5ccccc5)ccc4nc3C)CC2)c1 as listed: activity change, negative = inhibition: inactive: -10.2%
# O=C(NNC(=O)c1sc2ccccc2c1Cl)Nc1ccc(Cl)cc1 as listed: activity change, negative = inhibition: inconclusive: 26.1%

# The results go on.

SMILES,"activity change, negative = inhibition",Potency
N#Cc1ccc(NC(=O)Cn2c3[n+](c4ccc(C(F)(F)F)cc42)CCCCC3)cc1,inactive: 2.58%,
COc1ccc(/C=N/NC(=O)CCn2cnc(-c3ccccc3)c2-c2ccccc2)cc1OC,,"inconclusive: 23.1 µM [falling, partial curve]"
COc1ccc(Nc2cc(C(=O)N3CCc4ccccc4C3)c3ccccc3n2)c(OC)c1,inconclusive: -12.7%,
Brc1ccc(OCc2ccccc2)c(CNCc2ccncc2)c1,,"inconclusive: 22.4 µM [falling, single point]"
CCOC(=O)c1c(OCC)[nH]c2ccc(O)cc12,inconclusive: -8.65%,
CCN(CCNC(=O)c1ccc2nc(-c3ccccc3NC(C)=O)c(=O)[nH]c2c1)c1ccccc1,inconclusive: 19.4%,
CCNC(=S)N/N=C/c1sc(N2CCCCC2)nc1-c1cccs1,inconclusive: -0.498%,
CCc1cc(=O)oc2cc(OCC(=O)N3CCC[C@H]3C(=O)O)ccc12,,"inconclusive: 6.31 µM [falling, partial curve, poor fit]"
CCOc1ccccc1NC(=O)CN1CCC(C(=O)c2ccc(OC)cc2)CC1,inconclusive: 11.5%,
CN1/C(=C\P(=O)(N(C)C)N(C)C)C(C)(C)c2ccccc21,inactive: 0.294%,
CCOC(=O)c1c(C)[nH]c(C)c1C(=O)COc1ncnc2cc([N+](=O)[O-])ccc12,inconclusive: 0.542%,
CCCCNc1c([N+](=O)[O-])cc(C)cc1[N+](=O)[O-],inconclusive: 8.68%,
CC(=O)Nc1ccc(NC(=O)C(C)OC(=O)CCCN2C(=O)c3cccc4cccc(c34)C2=O)cc1 (configuration not stated),,"inconclusive: 2.06 µM [rising, partial curve]"
CSC(=NNC(=O)c1ccc(O)cc1)SC,,"inconclusive: 29.1 µM [rising, single point]"
COc1ccc(NC(=S)NC(NC(C)=O)C(Cl)(Cl)Cl)c([N+](=O)[O-])c1 (configuration not stated),,"inconclusive: 6.51 µM [falling, partial curve, poor fit]"
O=C(c1cc(Sc2ccc(Cl)cc2)nc2ccccc12)N1CCN(c2ccccn2)CC1,inactive: -0.713%,
OC(COC(c1ccccc1)c1ccccc1)CN1CCN(c2ccccn2)CC1 (configuration not stated),inactive: -7%,
O=C1C=C(c2ccc3ncccc3c2)C[C@@H](c2ccc(Cl)cc2)C1,inconclusive: -5.86%,
NC(=O)C1CCCN(C(=O)CCCNC(=O)c2ccc(Cl)cc2)C1 (configuration not stated),inactive: 3.35%,
COc1ccc2c(C(=O)c3ccc(C)cc3)n(Cc3ccc(C(N)=O)cc3)[n+]([O-])c2c1,inconclusive: 0.398%,
COc1ccc(/C=N/NC(=O)c2ccc(F)cc2)cc1CN1CCc2cc(OC)c(OC)cc2C1C (configuration not stated),,"inconclusive: 4.47 µM [falling, partial curve, poor fit]"
COc1ccc(NC(=O)CCNC(C)=O)cc1NS(=O)(=O)c1ccc(F)cc1,inconclusive: -0.0149%,
Cn1ccnc1Sc1cc(NCCCO)c([N+](=O)[O-])c2nonc12,inconclusive: 29.6%,
COc1cccc(C(=O)N/N=C/c2ccc(OC)c(COc3ccccc3C(N)=O)c2)c1,inconclusive: 11.9%,
COc1ccc(OC)c(S(=O)(=O)N2Cc3ccccc3CC2C(=O)Nc2nccs2)c1 (configuration not stated),,"inconclusive: 6.51 µM [rising, single point]"
